Results from patent US11872291B2, “Fibroblast activation protein (FAP)-targeted imaging and therapy” (priority 2016, dated 2024).
For at least one compound, name, drawing or mass did not settle the structure.

Experiments:
[1] = target: T1, FAP transfected HEK293 cells (Homo sapiens, UniProt Q12884); assay: In vitro binding assay, cell bound fluorescence; details: competition with excess of the FAP ligand JFL
T1 construct: expressed in transfected cells; host or cells: HEK293
T1 sequence (Q12884 1-760): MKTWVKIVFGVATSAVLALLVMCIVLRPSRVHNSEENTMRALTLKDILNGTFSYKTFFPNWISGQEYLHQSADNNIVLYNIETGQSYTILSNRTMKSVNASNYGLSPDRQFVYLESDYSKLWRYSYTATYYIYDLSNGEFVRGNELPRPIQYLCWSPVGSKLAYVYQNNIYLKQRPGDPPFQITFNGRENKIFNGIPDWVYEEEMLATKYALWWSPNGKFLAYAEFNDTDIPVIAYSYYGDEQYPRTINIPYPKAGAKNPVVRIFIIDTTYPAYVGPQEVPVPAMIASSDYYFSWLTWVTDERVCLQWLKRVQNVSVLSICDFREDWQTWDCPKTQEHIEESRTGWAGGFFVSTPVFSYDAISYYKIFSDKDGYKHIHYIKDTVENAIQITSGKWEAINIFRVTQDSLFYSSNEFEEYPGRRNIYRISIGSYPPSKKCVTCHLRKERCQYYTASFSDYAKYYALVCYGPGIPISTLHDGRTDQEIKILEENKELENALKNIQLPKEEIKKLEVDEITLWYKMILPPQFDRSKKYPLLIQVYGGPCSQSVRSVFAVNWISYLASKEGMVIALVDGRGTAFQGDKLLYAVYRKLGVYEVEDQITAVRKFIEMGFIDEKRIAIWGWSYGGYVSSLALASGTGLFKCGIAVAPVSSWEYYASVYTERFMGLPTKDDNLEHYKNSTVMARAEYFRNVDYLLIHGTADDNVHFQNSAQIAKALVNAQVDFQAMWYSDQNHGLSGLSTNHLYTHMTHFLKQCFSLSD

[2] = system: MDA-MB-231 tumor xenografts; assay: In vivo imaging using different concentrations of JFL-L1-SO456; design: species or system mice; details: 2 h
MDA-MB-231 tumor = assay: Cocktail imaging: FAPα and LHRH-R targeted NIR conjugates; type: in vivo, mice; details: JFL-L1-SO456 and JL-L3-SO456 co-administered, identical dose (5 nmoles each), 2 h

In the case of `C[C@@H](NC(=O)c1ccnc(CNC(=O)CCC(=O)N[C@@H](CSC2CC(=O)N(CCNC(=O)CCc3ccc(OC4=C(/C=C/C5=[N+](CCCCS(=O)(=O)O)c6ccc(S(=O)(=O)[O-])cc6C5(C)C)CCC/C4=C\C=C4\N(CCCCS(=O)(=O)O)c5ccc(S(=O)(=O)O)cc5C4(C)C)cc3)C2=O)C(=O)O)c1)C(=O)N1CC(F)(F)C[C@H]1C#N` (stereo partly shown) [JFL-L1-S0456], the “cell bound fluorescence in the presence of excess of JFL” value [1] is reported as “the cell bound fluorescence was competed”, the “fluorescence intensity of the tumor” value ([2]; 5 nmole i.v.) is reported as ~10^7 and the “fluorescence intensity of the tumor” value ([2]; 10 nmole i.v.) is reported as ~10^7. The “fluorescence intensity of the tumor” value ([2]; 20 nmole i.v.) was ~10 s, the “saturation of tumor fluorescence intensity with dose” value ([2]; 5, 10 and 20 nmoles i.v.) was “did not show any signs of saturation up to 20 nmoles” and the “increase in the fluorescence intensity of tumor, 10 nmole group compared to 5 nmole group” value ([2]; i.v.) was “two-fold increase”. For the same molecule, the “increase of tumor fluorescence intensity in the combination group compared to single agent group” value (MDA-MB-231 tumor) was “more than double”.
